PubChem BioAssay AID504764 – Drosophila RNAi Screening Center, 2011

Purpose: 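Knock-downs that raise or lower a Notch target reporter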 (primary screen)
Cell system: Drosophila Kc167 cells
Knock-down reagent: long dsRNA against Drosophila genes
Duration: about 5 days (4 days dsRNA, then 24 h after transfection)
Treatment: transfection of constitutively active membrane-tethered Notch lacking the extracellular domain, read 24 h later
Detection: 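Light from a Notch-responsive E(spl)m3 luciferase reporter under active Notch, with control-promoter and no-Notch reporter wells to normalise; raw counts from paired wells a and b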
Direction: induced reporter light, run 1, well a and induced reporter light, run 1, well b: higher = more light from the Notch target reporter with active Notch; control promoter light, run 1, well a and control promoter light, run 1, well b: higher = more light from the viral control promoter (cell number, transfection, viability); uninduced reporter light, run 1, well a: higher = more light from the Notch target reporter without active Notch
Hit rule: 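Hit if the duplicate-averaged log2 ratio of induced to control-promoter light gives a plate-wise z beyond ±2, or induced to uninduced beyond ±1.8; weak-control or discordant-duplicate wells dropped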
Meaning of the calls: active = modifier hit (raised or lowered Notch signal); inactive = not a hit
The screen tested about 22,000 reagents; below is a random part of those that have a named target and a result. Over the whole deposit, 403 (1.9%) were called active. 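Unnormalised raw counts per well; ratio z-scores behind the hit calls and whether each hit raises or lowers signal are not deposited.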 Names joined by + are all predicted targets of the reagent. Reagent sequences are not shown. Not stated in the record: the amount of reagent.

target	DRSC id	induced reporter light, run 1, well a	induced reporter light, run 1, well b	control promoter light, run 1, well a	control promoter light, run 1, well b	uninduced reporter light, run 1, well a	Call
CG12480	DRSC19460	99910	79965	94635	80970	11825	inactive
CG17996 + Tsen2	DRSC02650	1.21e5	1.18e5	1.57e5	1.62e5	10940	inactive
hwt (heavyweight)	DRSC19386	1.58e5	1.57e5	2.27e5	2.40e5	13465	inactive
CG13365	DRSC17899	1.42e5	1.37e5	2.14e5	2.24e5	8995	inactive
Pcp (Pupal cuticle protein)	DRSC03395	60650	53830	63590	57830	4245	inactive
CG12490	DRSC04123	2.29e5	2.00e5	2.20e5	1.93e5	17850	inactive
CG10943	DRSC09805	1.54e5	1.26e5	1.42e5	1.34e5	6250	inactive
TTLL6A (Tubulin tyrosine ligase-like 6A)	DRSC06618	96190	75830	1.06e5	80165	6350	inactive
GstE6 (Glutathione S transferase E6)	DRSC06676	45290	27955	39125	25805	3310	inactive
AnxB10 (Annexin B10)	DRSC20677	1.07e5	1.54e5	1.12e5	64795	8838	inactive
Eip63F-1 (Ecdysone-induced protein 63F 1)	DRSC08072	2.06e5	1.95e5	1.90e5	1.76e5	11885	inactive
Eip63F-1 (Ecdysone-induced protein 63F 1)	DRSC08659	99950	93775	1.46e5	1.74e5	7160	inactive
Vm26Ab (Vitelline membrane 26Ab)	DRSC03473	1.70e5	1.83e5	2.36e5	1.68e5	7935	inactive
Rbcn-3B (Rabconnectin-3B)	DRSC18574	83460	71310	88850	99315	3840	inactive
by (blistery)	DRSC16482	75615	76510	75230	59045	3878	inactive
Strump (Strumpellin)	DRSC09872	1.63e5	1.46e5	2.04e5	2.21e5	8665	inactive
CG4956	DRSC15683	1.62e5	1.73e5	1.66e5	2.09e5	13938	inactive
CG42697	DRSC05740	1.08e5	1.33e5	1.63e5	1.33e5	8035	inactive
RhoGDI	DRSC10919	1.16e5	1.07e5	78280	85190	9345	inactive
CG10280	DRSC12133	1.05e5	1.27e5	92590	86870	10860	inactive
Cpr76Bd (Cuticular protein 76Bd)	DRSC11063	1.37e5	1.19e5	1.39e5	1.76e5	9305	inactive
CG32119	DRSC09248	2.84e5	2.18e5	3.39e5	2.32e5	26505	active
alpha-Est4aPsi (pseudo)	DRSC12473	1.31e5	1.71e5	1.35e5	1.85e5	9795	inactive
CG7402	DRSC10839	1.50e5	1.35e5	2.14e5	1.93e5	6928	inactive
CG13258	DRSC02244	1.49e5	1.39e5	1.45e5	1.91e5	13395	inactive
Skeletor (retired record)	DRSC14905	1.04e5	74815	74170	57610	5760	inactive
Skeletor (retired record)	DRSC14906	1.49e5	1.28e5	1.01e5	93110	9855	inactive
CG31751	DRSC02464	45780	43240	49250	72020	3670	inactive
CG31751	DRSC02465	1.00e5	66655	69105	81310	4465	inactive
AhcyL1 (Adenosylhomocysteinase like 1)	DRSC08647	1.28e5	1.12e5	1.53e5	1.31e5	5890	inactive
CG15515	DRSC15054	1.15e5	1.33e5	2.03e5	1.71e5	11790	inactive
CG15144	DRSC02445	1.20e5	1.39e5	1.42e5	1.72e5	11755	inactive
Usp2 (Ubiquitin specific protease 2)	DRSC20590	2.02e5	1.73e5	2.88e5	2.80e5	15630	inactive
Usp2 (Ubiquitin specific protease 2)	DRSC20632	1.18e5	1.20e5	87455	49475	9685	inactive
Usp2 (Ubiquitin specific protease 2)	DRSC20633	73480	80510	52415	78815	10350	active
